In the supplement of paper PMC4604168 (melanoma cell lines):
This is one part of the list. Repeats are few or missing, and single values can be far off.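 Cells were imaged in 1,536-well plates, and nuclei stained with an antibody against cleaved PARP were counted against all DNA-stained nuclei to give the apoptosis fraction. Screening doses were chosen to leave most cells alive, and resting and induced cleaved-PARP levels differ strongly between cell lines.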

Experiments:
Assay in all cases: cleaved PARP positive nuclei fraction relative to DMSO control; melanoma cells; higher = more apoptosis
Conditions in all cases: library dose: low library concentration; 72 h
COLO792 = tested on: COLO792
COLO800 = tested on: COLO800
COLO829 = tested on: COLO829
G361 = tested on: G361
IPC-298 = tested on: IPC-298
IST-MEL1 = tested on: IST-MEL1
LB2518-MEL = tested on: LB2518-MEL
LOXIMVI = tested on: LOXIMVI
MZ2-MEL = tested on: MZ2-MEL
MeWo = tested on: MeWo
RPMI7951 = tested on: RPMI7951
RVH-421 = tested on: RVH-421
SkMel28 = tested on: SkMel28
SkMel2 = tested on: SkMel2
SkMel30 = tested on: SkMel30
SkMel5 = tested on: SkMel5
UACC257 = tested on: UACC257
UACC62 = tested on: UACC62
MEL-HO = tested on: MEL-HO

Row | SMILES | cleaved PARP positive nuclei fraction (COLO792) | cleaved PARP positive nuclei fraction (COLO800) | cleaved PARP positive nuclei fraction (COLO829) | cleaved PARP positive nuclei fraction (G361) | cleaved PARP positive nuclei fraction (IPC-298) | cleaved PARP positive nuclei fraction (IST-MEL1) | cleaved PARP positive nuclei fraction (LB2518-MEL) | cleaved PARP positive nuclei fraction (LOXIMVI) | cleaved PARP positive nuclei fraction (MZ2-MEL) | cleaved PARP positive nuclei fraction (MeWo) | cleaved PARP positive nuclei fraction (RPMI7951) | cleaved PARP positive nuclei fraction (RVH-421) | cleaved PARP positive nuclei fraction (SkMel28) | cleaved PARP positive nuclei fraction (SkMel2) | cleaved PARP positive nuclei fraction (SkMel30) | cleaved PARP positive nuclei fraction (SkMel5) | cleaved PARP positive nuclei fraction (UACC257) | cleaved PARP positive nuclei fraction (UACC62) | cleaved PARP positive nuclei fraction (MEL-HO)
1 | CC(=O)c1c(C)c2cnc(Nc3ccc(N4CCNCC4)cn3)nc2n(C2CCCC2)c1=O [palbociclib] + O=c1cc(-c2cccc3c2Sc2ccccc2S3)oc(N2CCOCC2)c1 [KU55933] (first compound 0.04 µM, partner dose 1 µM) | 55.3% | 75.7% | 99.3% | 189% | 147% | 139% | 67.5% | 85.4% | 106% | 60.9% | 168% | 55.4% | 125% | 71.7% | 73.5% | 202% | 154% | 148% | –
2 | C=CCNC1=C2C[C@@H](C)C[C@H](OC)[C@H](O)[C@@H](C)/C=C(\C)[C@H](OC(N)=O)[C@@H](OC)/C=C\C=C(/C)C(=O)NC(=CC1=O)C2=O [Tanespimycin] + O=C1NC(=O)/C(=C/c2ccc(-c3ccc(F)cc3O)o2)S1 [AS252424] (first compound 0.002 µM, partner dose 1 µM) | 132% | 140% | 80.2% | 102% | 91.3% | 98% | 70.9% | 151% | 138% | 72.2% | 106% | 78.3% | 99.7% | 87.6% | 90.2% | 693% | 218% | 67.5% | –
3 | CC(=O)c1c(C)c2cnc(Nc3ccc(N4CCNCC4)cn3)nc2n(C2CCCC2)c1=O [palbociclib] + COC(=O)c1sccc1S(=O)(=O)Nc1ccc(Nc2ccccc2)cc1OC [GSK0660] (first compound 0.04 µM, partner dose 1 µM) | 117% | 205% | 20.9% | 46.7% | 224% | 41.1% | 46.9% | 119% | 126% | 54.1% | 95% | 140% | 51.1% | 44.3% | 166% | 54.1% | 72.6% | 318% | –
4 | OCc1c[nH]c2ccccc12 [Indole-3-carbinol] + COc1cc2ncnc(Nc3ccc(Oc4ccccc4)cc3)c2cc1OC [SrcI1] (first compound 0.8 µM, partner dose 2 µM) | 85.9% | 69% | 95% | 35.4% | 48% | 101% | 112% | 90.5% | 98.5% | 129% | 71.4% | 20.8% | 211% | 89.2% | 169% | 35.8% | 51.2% | 113% | –
5 | Clc1ccc(Nc2nnc(Cc3ccncc3)c3ccccc23)cc1 [vatalanib] + O=C(O)C(=O)Nc1sc2c(c1C(=O)O)CCNC2 [TCS401] (first compound 2 µM, partner dose 1.66667 µM) | 63.2% | 48.8% | 99.7% | 120% | 81.1% | 28.6% | 76.3% | 130% | 192% | 82.2% | 81.7% | 37% | 115% | 140% | 183% | 220% | 123% | 148% | –
6 | CC(=O)c1c(C)c2cnc(Nc3ccc(N4CCNCC4)cn3)nc2n(C2CCCC2)c1=O [palbociclib] + Cn1cc(/C=C2\C(=O)Nc3cccnc32)c2ccccc21 [GW441756] (first compound 0.04 µM, partner dose 0.4 µM) | 163% | 133% | 64.1% | 93% | 208% | 53.5% | 174% | 466% | 54.3% | 34.9% | 89.5% | 448% | 95.4% | 29.2% | 60.3% | 213% | 587% | 88.6% | –
7 | COc1cc(Nc2ncc(F)c(Nc3ccc4c(n3)NC(=O)C(C)(C)O4)n2)cc(OC)c1OC [Tamatinib] + COc1cc2c(Oc3ccc4[nH]c(C)cc4c3F)ncnc2cc1OCCCN1CCCC1 [cediranib] (first compound 0.4 µM, partner dose 0.4 µM) | 247% | 115% | 64.1% | 65% | 111% | 63.9% | 137% | 79.7% | 109% | 111% | 129% | 47.1% | 34.4% | 142% | 91% | 237% | 120% | 104% | 69.5%
8 | C=CCNC1=C2C[C@@H](C)C[C@H](OC)[C@H](O)[C@@H](C)/C=C(\C)[C@H](OC(N)=O)[C@@H](OC)/C=C\C=C(/C)C(=O)NC(=CC1=O)C2=O [Tanespimycin] + CCN(CC)CCCCNc1ncc2cc(-c3cc(OC)cc(OC)c3)c(NC(=O)NC(C)(C)C)nc2n1 [PD173074] (first compound 0.002 µM, partner dose 0.1 µM) | 14.8% | 88.1% | 68% | 89.6% | 92.2% | 124% | 73.1% | 71.7% | 64.2% | 44.7% | 35.7% | 81.8% | 85.8% | 65.9% | 116% | 222% | 84.4% | 40.3% | –
9 | C=CCNC1=C2C[C@@H](C)C[C@H](OC)[C@H](O)[C@@H](C)/C=C(\C)[C@H](OC(N)=O)[C@@H](OC)/C=C\C=C(/C)C(=O)NC(=CC1=O)C2=O [Tanespimycin] + CCCCCCCCCCCC1=C(O)C(=O)C=C(O)C1=O [Embelin] (first compound 0.002 µM, partner dose 1.2 µM) | 88.7% | 30.7% | 80.4% | 57.2% | 130% | 154% | 69.9% | 60.6% | 78.5% | 126% | 187% | 92.8% | 153% | 76.5% | 1300% | 77.1% | 25.6% | 60.5% | –
